Source: the supplement of paper PMC10849652
This is one part of the list.

Protein sequences, listed by entry. Tags and fused reporters are not part of them. Lines headed by an entry give the natural chain unless they say otherwise; changes in a name come on top.
UniProt P31949: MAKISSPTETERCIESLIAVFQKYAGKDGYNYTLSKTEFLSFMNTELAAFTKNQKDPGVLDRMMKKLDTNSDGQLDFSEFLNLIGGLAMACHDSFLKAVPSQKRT
UniProt Q96EU6: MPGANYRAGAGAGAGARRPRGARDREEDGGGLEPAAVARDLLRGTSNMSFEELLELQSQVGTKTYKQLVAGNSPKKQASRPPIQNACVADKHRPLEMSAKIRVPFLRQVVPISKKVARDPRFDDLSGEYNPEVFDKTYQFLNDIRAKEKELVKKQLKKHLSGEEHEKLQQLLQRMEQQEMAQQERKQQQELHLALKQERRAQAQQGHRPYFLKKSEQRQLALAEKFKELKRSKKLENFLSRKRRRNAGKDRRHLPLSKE
UniProt P67812: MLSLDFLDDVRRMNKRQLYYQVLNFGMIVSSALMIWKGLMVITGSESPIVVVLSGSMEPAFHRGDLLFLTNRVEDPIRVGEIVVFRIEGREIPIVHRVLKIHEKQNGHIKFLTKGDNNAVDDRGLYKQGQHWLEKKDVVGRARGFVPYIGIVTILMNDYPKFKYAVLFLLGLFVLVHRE
UniProt Q9UPN6: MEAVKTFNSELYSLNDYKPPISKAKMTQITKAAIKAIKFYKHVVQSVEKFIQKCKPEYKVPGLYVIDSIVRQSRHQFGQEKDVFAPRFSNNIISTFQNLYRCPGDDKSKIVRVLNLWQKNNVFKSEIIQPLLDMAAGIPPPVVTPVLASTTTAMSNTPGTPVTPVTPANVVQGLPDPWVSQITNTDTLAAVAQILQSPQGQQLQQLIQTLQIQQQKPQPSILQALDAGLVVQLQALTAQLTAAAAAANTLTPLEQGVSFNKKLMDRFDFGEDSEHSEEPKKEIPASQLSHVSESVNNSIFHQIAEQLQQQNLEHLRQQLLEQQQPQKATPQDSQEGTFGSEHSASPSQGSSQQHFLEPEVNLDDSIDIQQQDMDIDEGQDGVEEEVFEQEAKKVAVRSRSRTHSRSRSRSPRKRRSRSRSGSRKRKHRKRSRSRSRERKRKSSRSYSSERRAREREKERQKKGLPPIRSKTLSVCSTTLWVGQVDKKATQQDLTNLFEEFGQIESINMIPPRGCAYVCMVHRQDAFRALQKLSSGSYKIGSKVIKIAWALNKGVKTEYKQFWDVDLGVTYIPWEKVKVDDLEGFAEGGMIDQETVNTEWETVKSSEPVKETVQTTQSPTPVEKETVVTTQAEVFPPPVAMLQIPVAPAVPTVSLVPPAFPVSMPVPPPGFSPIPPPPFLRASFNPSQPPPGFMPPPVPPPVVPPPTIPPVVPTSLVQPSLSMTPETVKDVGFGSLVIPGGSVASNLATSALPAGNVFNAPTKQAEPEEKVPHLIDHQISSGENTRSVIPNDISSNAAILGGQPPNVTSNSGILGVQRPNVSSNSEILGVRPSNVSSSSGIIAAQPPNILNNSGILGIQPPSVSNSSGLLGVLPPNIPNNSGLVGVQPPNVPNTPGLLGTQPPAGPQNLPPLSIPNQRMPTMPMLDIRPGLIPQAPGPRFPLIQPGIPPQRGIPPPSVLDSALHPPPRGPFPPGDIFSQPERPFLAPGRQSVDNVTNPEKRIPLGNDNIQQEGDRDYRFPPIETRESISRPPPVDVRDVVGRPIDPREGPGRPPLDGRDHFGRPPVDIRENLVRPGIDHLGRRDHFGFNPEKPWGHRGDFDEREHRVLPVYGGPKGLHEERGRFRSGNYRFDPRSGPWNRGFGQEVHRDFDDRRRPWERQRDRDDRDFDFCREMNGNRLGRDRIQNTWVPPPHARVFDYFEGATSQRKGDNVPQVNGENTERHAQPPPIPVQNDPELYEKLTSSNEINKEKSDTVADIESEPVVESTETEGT
UniProt Q5VWQ0: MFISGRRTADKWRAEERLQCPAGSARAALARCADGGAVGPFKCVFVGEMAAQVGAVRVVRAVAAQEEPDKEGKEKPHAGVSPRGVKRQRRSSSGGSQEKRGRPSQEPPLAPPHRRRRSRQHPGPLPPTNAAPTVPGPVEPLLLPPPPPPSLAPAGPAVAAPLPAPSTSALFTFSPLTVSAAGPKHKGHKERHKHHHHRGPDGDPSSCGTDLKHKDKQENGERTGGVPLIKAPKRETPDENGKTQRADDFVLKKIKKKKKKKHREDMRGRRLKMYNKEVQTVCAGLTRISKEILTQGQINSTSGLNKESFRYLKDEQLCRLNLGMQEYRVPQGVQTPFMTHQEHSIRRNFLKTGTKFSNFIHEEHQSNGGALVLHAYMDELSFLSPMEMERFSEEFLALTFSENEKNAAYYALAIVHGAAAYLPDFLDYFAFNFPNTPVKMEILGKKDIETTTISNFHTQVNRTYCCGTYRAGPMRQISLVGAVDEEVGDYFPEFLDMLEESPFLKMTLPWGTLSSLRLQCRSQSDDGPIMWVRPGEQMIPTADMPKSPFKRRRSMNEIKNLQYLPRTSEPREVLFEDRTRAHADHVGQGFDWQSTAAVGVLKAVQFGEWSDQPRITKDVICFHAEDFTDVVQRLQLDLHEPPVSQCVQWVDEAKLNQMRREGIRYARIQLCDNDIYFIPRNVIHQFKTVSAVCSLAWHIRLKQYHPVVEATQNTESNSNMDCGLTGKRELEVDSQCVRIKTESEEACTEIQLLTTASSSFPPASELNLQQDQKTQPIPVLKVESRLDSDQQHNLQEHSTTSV
UniProt O00422: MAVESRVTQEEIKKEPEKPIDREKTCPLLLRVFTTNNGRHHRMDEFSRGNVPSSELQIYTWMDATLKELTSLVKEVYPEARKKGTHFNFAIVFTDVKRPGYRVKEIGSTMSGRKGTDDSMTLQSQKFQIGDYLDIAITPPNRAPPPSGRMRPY
UniProt Q96IZ7: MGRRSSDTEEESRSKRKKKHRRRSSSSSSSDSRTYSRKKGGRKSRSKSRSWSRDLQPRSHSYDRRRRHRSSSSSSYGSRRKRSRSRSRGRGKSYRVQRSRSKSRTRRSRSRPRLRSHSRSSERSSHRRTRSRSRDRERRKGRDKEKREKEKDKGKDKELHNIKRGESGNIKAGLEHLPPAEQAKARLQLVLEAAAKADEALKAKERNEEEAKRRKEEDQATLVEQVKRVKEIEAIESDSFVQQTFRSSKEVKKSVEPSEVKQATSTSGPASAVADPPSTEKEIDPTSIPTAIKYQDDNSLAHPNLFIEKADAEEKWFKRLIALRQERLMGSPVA
UniProt Q9H446: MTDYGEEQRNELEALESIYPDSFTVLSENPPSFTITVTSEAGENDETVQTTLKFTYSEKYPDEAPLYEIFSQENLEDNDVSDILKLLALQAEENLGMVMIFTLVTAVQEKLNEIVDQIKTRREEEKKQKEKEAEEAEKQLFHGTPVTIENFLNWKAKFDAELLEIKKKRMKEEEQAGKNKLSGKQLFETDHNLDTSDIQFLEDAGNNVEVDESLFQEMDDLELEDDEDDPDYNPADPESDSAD
UniProt Q8WWV3: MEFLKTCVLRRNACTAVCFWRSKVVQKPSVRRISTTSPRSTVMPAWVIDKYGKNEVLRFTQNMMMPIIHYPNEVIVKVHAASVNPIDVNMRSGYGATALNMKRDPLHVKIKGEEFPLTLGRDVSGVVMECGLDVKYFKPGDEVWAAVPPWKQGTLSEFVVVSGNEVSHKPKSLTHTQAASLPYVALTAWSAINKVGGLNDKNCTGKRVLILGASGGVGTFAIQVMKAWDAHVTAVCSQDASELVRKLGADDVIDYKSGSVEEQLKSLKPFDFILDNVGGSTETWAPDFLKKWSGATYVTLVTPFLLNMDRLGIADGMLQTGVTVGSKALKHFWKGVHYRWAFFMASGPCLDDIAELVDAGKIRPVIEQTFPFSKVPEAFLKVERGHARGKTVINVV
UniProt Q15424: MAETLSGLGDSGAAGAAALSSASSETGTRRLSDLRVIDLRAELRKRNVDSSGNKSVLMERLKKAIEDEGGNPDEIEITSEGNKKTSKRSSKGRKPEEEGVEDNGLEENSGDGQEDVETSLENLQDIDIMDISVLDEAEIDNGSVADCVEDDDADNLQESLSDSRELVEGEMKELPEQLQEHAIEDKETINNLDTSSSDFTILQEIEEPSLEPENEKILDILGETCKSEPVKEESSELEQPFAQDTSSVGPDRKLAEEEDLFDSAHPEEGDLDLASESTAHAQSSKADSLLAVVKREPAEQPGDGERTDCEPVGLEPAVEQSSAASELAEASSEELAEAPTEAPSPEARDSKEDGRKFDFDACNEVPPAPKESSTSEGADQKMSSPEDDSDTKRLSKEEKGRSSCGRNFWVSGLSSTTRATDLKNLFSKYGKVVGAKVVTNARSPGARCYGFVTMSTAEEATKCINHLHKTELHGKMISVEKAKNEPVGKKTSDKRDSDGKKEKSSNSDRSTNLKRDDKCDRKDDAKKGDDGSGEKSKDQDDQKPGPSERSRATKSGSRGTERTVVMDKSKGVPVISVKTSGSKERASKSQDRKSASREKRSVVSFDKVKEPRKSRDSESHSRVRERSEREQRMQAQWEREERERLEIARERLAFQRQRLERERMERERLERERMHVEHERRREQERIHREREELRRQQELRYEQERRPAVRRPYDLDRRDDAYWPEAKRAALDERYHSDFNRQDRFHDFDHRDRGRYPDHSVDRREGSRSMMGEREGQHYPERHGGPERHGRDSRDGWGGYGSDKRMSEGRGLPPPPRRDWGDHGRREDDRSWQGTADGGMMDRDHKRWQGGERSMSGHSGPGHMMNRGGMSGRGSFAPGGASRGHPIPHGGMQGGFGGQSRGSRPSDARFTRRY
UniProt Q99643: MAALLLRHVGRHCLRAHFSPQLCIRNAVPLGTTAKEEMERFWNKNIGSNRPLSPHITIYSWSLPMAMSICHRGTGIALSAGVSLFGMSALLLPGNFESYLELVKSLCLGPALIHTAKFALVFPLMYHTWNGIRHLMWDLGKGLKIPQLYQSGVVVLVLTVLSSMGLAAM
UniProt Q9Y6B6: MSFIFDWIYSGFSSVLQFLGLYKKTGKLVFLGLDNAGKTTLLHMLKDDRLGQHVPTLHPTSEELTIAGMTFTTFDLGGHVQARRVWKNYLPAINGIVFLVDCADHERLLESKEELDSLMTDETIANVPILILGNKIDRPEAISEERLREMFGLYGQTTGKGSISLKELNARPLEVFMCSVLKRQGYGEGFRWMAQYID
UniProt Q9Y3A5: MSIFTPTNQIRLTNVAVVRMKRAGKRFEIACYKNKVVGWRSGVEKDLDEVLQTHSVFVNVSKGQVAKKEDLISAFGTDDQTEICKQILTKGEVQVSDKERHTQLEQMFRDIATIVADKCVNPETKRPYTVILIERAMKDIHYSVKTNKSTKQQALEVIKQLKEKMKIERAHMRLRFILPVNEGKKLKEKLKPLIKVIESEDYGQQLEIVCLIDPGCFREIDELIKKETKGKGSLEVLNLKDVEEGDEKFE
UniProt Q9BY50: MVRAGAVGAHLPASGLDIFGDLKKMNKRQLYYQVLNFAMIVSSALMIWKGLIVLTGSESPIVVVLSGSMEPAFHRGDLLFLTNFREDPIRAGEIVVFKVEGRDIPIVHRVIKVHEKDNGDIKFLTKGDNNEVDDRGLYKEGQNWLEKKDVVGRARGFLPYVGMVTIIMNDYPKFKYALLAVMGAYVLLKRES
UniProt Q9Y6U3: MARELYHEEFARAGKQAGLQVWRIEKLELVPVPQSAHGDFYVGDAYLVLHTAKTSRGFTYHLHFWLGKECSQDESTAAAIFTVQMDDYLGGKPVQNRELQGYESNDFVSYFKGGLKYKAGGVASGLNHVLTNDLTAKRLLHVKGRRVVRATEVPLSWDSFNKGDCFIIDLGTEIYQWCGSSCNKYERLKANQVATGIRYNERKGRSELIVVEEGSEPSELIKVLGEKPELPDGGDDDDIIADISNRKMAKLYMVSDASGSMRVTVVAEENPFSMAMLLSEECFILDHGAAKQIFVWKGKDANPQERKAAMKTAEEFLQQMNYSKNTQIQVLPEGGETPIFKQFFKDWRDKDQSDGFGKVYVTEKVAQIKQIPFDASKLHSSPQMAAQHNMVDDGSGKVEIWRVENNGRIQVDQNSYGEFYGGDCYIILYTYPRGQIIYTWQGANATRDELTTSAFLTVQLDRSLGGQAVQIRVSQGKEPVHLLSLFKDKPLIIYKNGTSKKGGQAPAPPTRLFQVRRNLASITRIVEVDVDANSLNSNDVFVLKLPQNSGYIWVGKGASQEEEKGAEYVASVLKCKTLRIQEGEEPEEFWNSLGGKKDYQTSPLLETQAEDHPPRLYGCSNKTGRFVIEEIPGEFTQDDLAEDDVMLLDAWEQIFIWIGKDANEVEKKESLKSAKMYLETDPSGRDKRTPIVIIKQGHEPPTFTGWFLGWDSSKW
UniProt O15126: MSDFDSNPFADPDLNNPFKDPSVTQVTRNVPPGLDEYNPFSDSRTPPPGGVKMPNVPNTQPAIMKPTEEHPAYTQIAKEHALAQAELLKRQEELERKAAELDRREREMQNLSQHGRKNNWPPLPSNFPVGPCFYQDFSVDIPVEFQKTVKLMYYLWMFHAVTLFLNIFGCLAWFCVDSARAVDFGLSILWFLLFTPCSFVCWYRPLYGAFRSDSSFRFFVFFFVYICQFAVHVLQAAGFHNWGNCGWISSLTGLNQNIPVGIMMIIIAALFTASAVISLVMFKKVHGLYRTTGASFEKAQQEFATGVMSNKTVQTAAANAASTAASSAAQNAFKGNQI

compound: NC(=O)Nc1cc(-c2cccc(F)c2)sc1C(=O)N[C@H]1CCCNC1; assay: log2 fold change, soluble protein after heating vs DMSO (PISA); higher = thermal stabilisation; K562 cells, 10 uM, 30 min; active = over 0.2 and 3.5 SD of the protein, either way, in both replicates (recomputed)
Method in brief: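 Soluble protein was defined as the supernatant after 21,000xg for 90 min. It came from K562 cells at 2×10^6 cells/mL given 10 μM compound for 30 min, heated in aliquots for 3 min across 48°C-58°C, pooled, and extracted in PBS with 0.5% NP-40 at 4°C, and was quantified by TMTpro 16plex LC-MS/MS with equalised channel sums. Thermal stability against control samples, from duplicates, is reported as log2 fold change.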

Target	log2 fold change
S100A11 (UniProt P31949)	inactive: 0.006
SASH1 (UniProt O94885)	inactive: -0.08
RRP36 (UniProt Q96EU6)	inactive: 0.115
SEC11A isoform 3 (UniProt P67812)	inactive: 0
SCAF8 isoform 2 (UniProt Q9UPN6)	inactive: -0.062
RSBN1 (UniProt Q5VWQ0)	inactive: 0.074
SAP18 isoform 2 (UniProt O00422)	inactive: 0.042
SCARB2 (UniProt Q14108)	inactive: -0.011
RSRC1 (UniProt Q96IZ7)	inactive: -0.019
SEC23IP (UniProt Q9Y6Y8)	inactive: -0.049
SCYL2 (UniProt Q6P3W7)	inactive: 0.003
RWDD1 (UniProt Q9H446)	inactive: -0.01
RTN4IP1 (UniProt Q8WWV3)	inactive: -0.057
SDHAF2 (UniProt Q9NX18)	inactive: -0.005
SCFD2 (UniProt Q8WU76)	inactive: 0.058
S100PBP (UniProt Q96BU1)	inactive: 0.108

2 records drawn at random from those above:
Target	log2 fold change
SCAF8 isoform 2 (UniProt Q9UPN6)	inactive: -0.062
RSBN1 (UniProt Q5VWQ0)	inactive: 0.074

(further entries)

Target	log2 fold change
RWDD4 (UniProt Q6NW29)	inactive: -0.031
SAFB isoform 3 (UniProt Q15424)	inactive: 0.051
RTCB (UniProt Q9Y3I0)	inactive: 0
SDHC (UniProt Q99643)	inactive: -0.12
SDHAF3 (UniProt Q9NRP4)	inactive: -0.012
SAR1B (UniProt Q9Y6B6)	inactive: -0.012
SBDS (UniProt Q9Y3A5)	inactive: -0.075
SEC11C (UniProt Q9BY50)	inactive: 0.003
S100P (UniProt P25815)	inactive: 0.144
SCIN (UniProt Q9Y6U3)	inactive: -0.075
RTF2 (UniProt Q9BY42)	inactive: -0.134
SCG3 (UniProt Q8WXD2)	inactive: 0.028
SCO2 (UniProt O43819)	active: -0.598
SCAMP1 (UniProt O15126)	inactive: -0.032
SCAMP3 (UniProt O14828)	inactive: 0.004
RRP12 (UniProt Q5JTH9)	inactive: 0.062
